PubChem BioAssay AID1904 | GNF – 2009
Only reagents picked out of a larger screen are listed. 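Lists only primary-screen hits; phenotype classes come from fitted traces, and the underlying luminescence values are not given.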 A number with no mark means an inactive call. The numbers tell different reagents against one gene apart.

Assay: 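Knockdowns that alter circadian period or oscillation amplitude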 (follow-up of hits)
System: human U2OS osteosarcoma cells stably expressing a destabilised luciferase driven by the Bmal1 promoter
Reagent: siRNA pair against human genes, 12.5 nM (two siRNAs, 0.5 pmol each, per well)
Duration: about 3 days after transfection, then luminescence recorded for about 4 days
Detection: 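Period and amplitude fitted from detrended luminescence traces taken every 2 hours; duplicate wells averaged, compared with the screen mean and grouped into phenotype classes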
Active means: 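Active when retesting with individual siRNAs reproduced the period or amplitude change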
Meaning of the calls: active = confirmed by single siRNAs; inactive = not confirmed

| Target gene | reagent | clock phenotype class | confirmed with single siRNAs |
| --- | --- | --- | --- |
| SFN | 1 | higher rhythm amplitude; seen with one siRNA pair in duplicate wells (inconclusive) | phenotype not reproduced by individual siRNAs |
| SFN | 2 | higher rhythm amplitude; seen with one siRNA pair in duplicate wells (inconclusive) | phenotype not reproduced by individual siRNAs |
| CRYGD | 1 | shorter clock period; seen with one siRNA pair in duplicate wells (inconclusive) | phenotype not reproduced by individual siRNAs |
| CRYGD | 2 | shorter clock period; seen with one siRNA pair in duplicate wells (inconclusive) | phenotype not reproduced by individual siRNAs |
| TMSNB | 1 | shorter clock period; seen with two independent siRNA pairs for the gene (inconclusive) | phenotype not reproduced by individual siRNAs |
| TMSNB | 2 | shorter clock period; seen with two independent siRNA pairs for the gene (inconclusive) | phenotype not reproduced by individual siRNAs |
| CKLF | 1 | shorter clock period; seen with one siRNA pair in duplicate wells (active) | phenotype reproduced by individual siRNAs |
| CKLF | 2 | shorter clock period; seen with one siRNA pair in duplicate wells (active) | phenotype reproduced by individual siRNAs |
| C11orf33 | 1 | longer clock period; seen with two independent siRNA pairs for the gene (active) | phenotype reproduced by individual siRNAs |
| C11orf33 | 2 | longer clock period; seen with two independent siRNA pairs for the gene (active) | phenotype reproduced by individual siRNAs |
| PEG3 | 1 | longer clock period; seen with two independent siRNA pairs for the gene (active) | phenotype reproduced by individual siRNAs |
| PEG3 | 2 | longer clock period; seen with two independent siRNA pairs for the gene (active) | phenotype reproduced by individual siRNAs |
| FLJ22457 | 1 | higher rhythm amplitude; seen with one siRNA pair in duplicate wells (active) | phenotype reproduced by individual siRNAs |
| FLJ22457 | 2 | higher rhythm amplitude; seen with one siRNA pair in duplicate wells (active) | phenotype reproduced by individual siRNAs |
| FKBP11 | 1 | higher rhythm amplitude; seen with one siRNA pair in duplicate wells (active) | phenotype reproduced by individual siRNAs |
| FKBP11 | 2 | higher rhythm amplitude; seen with one siRNA pair in duplicate wells (active) | phenotype reproduced by individual siRNAs |
| IRF4 | 1 | higher rhythm amplitude; seen with one siRNA pair in duplicate wells (active) | phenotype reproduced by individual siRNAs |
| IRF4 | 2 | higher rhythm amplitude; seen with one siRNA pair in duplicate wells (active) | phenotype reproduced by individual siRNAs |
| CIDEC | 1 | higher rhythm amplitude; seen with one siRNA pair in duplicate wells (inconclusive) | phenotype not reproduced by individual siRNAs |
| CIDEC | 2 | higher rhythm amplitude; seen with one siRNA pair in duplicate wells (inconclusive) | phenotype not reproduced by individual siRNAs |
| MGC50372 | 1 | higher rhythm amplitude; seen with two independent siRNA pairs for the gene (inconclusive) | phenotype not reproduced by individual siRNAs |
| MGC50372 | 2 | higher rhythm amplitude; seen with two independent siRNA pairs for the gene (inconclusive) | phenotype not reproduced by individual siRNAs |
| RAB3A | 1 | longer clock period; seen with two independent siRNA pairs for the gene (active) | phenotype reproduced by individual siRNAs |
| RAB3A | 2 | longer clock period; seen with two independent siRNA pairs for the gene (active) | phenotype reproduced by individual siRNAs |
| ZADH2 | 1 | longer clock period; seen with two independent siRNA pairs for the gene (active) | phenotype reproduced by individual siRNAs |
| ZADH2 | 2 | longer clock period; seen with two independent siRNA pairs for the gene (active) | phenotype reproduced by individual siRNAs |
| FZD10 | 1 | shorter clock period; seen with one siRNA pair in duplicate wells (active) | phenotype reproduced by individual siRNAs |
| FZD10 | 2 | shorter clock period; seen with one siRNA pair in duplicate wells (active) | phenotype reproduced by individual siRNAs |
| MRPL18 | 1 | longer clock period; seen with two independent siRNA pairs for the gene (inconclusive) | phenotype not reproduced by individual siRNAs |
| MRPL18 | 2 | longer clock period; seen with two independent siRNA pairs for the gene (inconclusive) | phenotype not reproduced by individual siRNAs |
| NOL6 | 1 | longer clock period; seen with two independent siRNA pairs for the gene (active) | phenotype reproduced by individual siRNAs |
| NOL6 | 2 | longer clock period; seen with two independent siRNA pairs for the gene (active) | phenotype reproduced by individual siRNAs |
| MRGPRE | 1 | longer clock period; seen with two independent siRNA pairs for the gene (active) | phenotype reproduced by individual siRNAs |
| MRGPRE | 2 | longer clock period; seen with two independent siRNA pairs for the gene (active) | phenotype reproduced by individual siRNAs |

5 successive records already listed:
| Target gene | reagent | clock phenotype class | confirmed with single siRNAs |
| --- | --- | --- | --- |
| C11orf33 | 1 | longer clock period; seen with two independent siRNA pairs for the gene (active) | phenotype reproduced by individual siRNAs |
| C11orf33 | 2 | longer clock period; seen with two independent siRNA pairs for the gene (active) | phenotype reproduced by individual siRNAs |
| PEG3 | 1 | longer clock period; seen with two independent siRNA pairs for the gene (active) | phenotype reproduced by individual siRNAs |
| PEG3 | 2 | longer clock period; seen with two independent siRNA pairs for the gene (active) | phenotype reproduced by individual siRNAs |
| FLJ22457 | 1 | higher rhythm amplitude; seen with one siRNA pair in duplicate wells (active) | phenotype reproduced by individual siRNAs |
